Values of other authors in patent US20120101005A1, “METHODS FOR PREDICTING THE TOXICITY OF A CHEMICAL” (GE HEALTHCARE UK LIMITED, priority 2009, published 2012).
At least one compound was matched to its structure with a doubt left. Some results were stated once for a whole list of compounds, not compound by compound. Some compounds share one range, which may span the group rather than tell each member.

Legend:
[1] = tested on: mouse embryonic stem cells; conditions: 50 μM
[2] = tested on: human embryonic stem cells

O=c1cc(N2CCOCC2)oc2c(-c3ccccc3)cccc12 [LY294002]
differentiation of mouse embryonic stem cells to cardiomyocytes [1]: blocks the differentiation

CCCCCCCC/C=C/CCCCCCCC(=O)OCC(CO)OC(C)=O (stereo not shown) [OAG]
concentration at which reported as inhibitor of human embryonic stem cell cardiomyocyte differentiation [2]: 0.01 to 100 µM

CC1=C(/C=C/C(C)=C/C=C/C(C)=C/C(=O)O)C(C)(C)CCC1 [retinoic acid]
early commitment of ES cells to adipocytes (ES cells; early stage of adipocyte differentiation): stimulates the early commitment of ES cells to adipocytes
pre-adipocyte maturation (ES cells; later stages of adipocyte differentiation): acts as an inhibitor in the later stages of pre-adipocyte maturation
